Experimental data: patent publication US11701376B2, “Nutritional compositions comprising human milk oligosaccharides and nucleotides and uses thereof for treating and/or preventing enteric viral infection” (priority 2010, dated 2023)
At least one compound was matched to its structure with a doubt left.

Legend:
[1] = test system: human parainfluenza virus (HPIV3); type: cell-based; details: HMO at 1 mg/mL
H1N1 influenza virus = type: cell-based; details: HMO at 1 mg/mL

CC(=O)N[C@H]1[C@H]([C@H](O)[C@H](O)CO)OC(O)(C(=O)O)C[C@@H]1O (some centres unmarked) [SA, sialic acid]
anti-viral activity, HPIV3 [1]: significantly inhibits | anti-viral activity, H1N1 influenza virus (H1N1 influenza virus): significantly inhibits
